Results from PMC5344255, “Design, Synthesis and Biochemical Evaluation of Novel Selective Estrogen Receptor Ligand Conjugates Incorporating an Endoxifen-Combretastatin Hybrid Scaffold” (Biomedicines, 2016).

Tested on: MDA-MB-231 human breast cancer cells
Assay: MTT assay for antiproliferative effects in MDA-MB-231
Assay type: cell-based
Conditions: MDA-MB-231, MTT assay
Method: The human breast carcinoma cell line, MCF-7, was purchased from the European Collection of Animal Cell Cultures (ECACC). The cells were maintained in MCF-7 complete medium; consisting of Eagle’s Minimum Essential Medium (MEM) supplemented with 10% (v/v) Foetal Bovine Serum (FBS), 2 mM L-glutamine, 100 μg/mL penicillin/streptomycin and 1% (v/v) non-essential amino acids. Cell cultures were maintained at 37 °C under a humidified atmosphere of 5% CO2/95% O2. The human breast carcinoma cell line, MDA, was purchased from the European Collection of Animal Cell Cultures (ECACC). The cells were maintained in MDA complete medium; consisting of Dulbecco’s Modified Eagle’s Medium (D-MEM) supplemented with 10% (v/v) Foetal Bovine Serum (FBS), 2 mM L-glutamine, 100 μg/mL penicillin/streptomycin. Cell cultures were maintained at 37 °C under a humidified atmosphere of 5% CO2/95% O2. The MTT assay was performed according to the reported protocol. The tetrazolium salt, 3-(4,5-dimethylthiazol-2-yl)-2,5-diphenyltetrazolium bromide (MTT) is taken up only by metabolically active cells and cleaved to form a formazan dye by mitochondrial dehydrogenases. Assays where repeated in three experiments performed in triplicate (unless otherwise stated) and reported results represent the mean value ± standard error mean. […]

IC50: 20 µM
Compound: CC/C(=C(\c1ccccc1)c1ccc(OCCN(C)C)cc1)c1ccccc1 [Tamoxifen, reference compound]
